From PMC9723622
These are yes or no findings as the source states them, for the method shown. Binding seen in cells or lysates may run through a third protein. A yes stands for co-enrichment or nearness to the bait. Other partners may have been found.

By UniProt entry, the sequences of proteins in these tests, tags left out.
UniProt P09874: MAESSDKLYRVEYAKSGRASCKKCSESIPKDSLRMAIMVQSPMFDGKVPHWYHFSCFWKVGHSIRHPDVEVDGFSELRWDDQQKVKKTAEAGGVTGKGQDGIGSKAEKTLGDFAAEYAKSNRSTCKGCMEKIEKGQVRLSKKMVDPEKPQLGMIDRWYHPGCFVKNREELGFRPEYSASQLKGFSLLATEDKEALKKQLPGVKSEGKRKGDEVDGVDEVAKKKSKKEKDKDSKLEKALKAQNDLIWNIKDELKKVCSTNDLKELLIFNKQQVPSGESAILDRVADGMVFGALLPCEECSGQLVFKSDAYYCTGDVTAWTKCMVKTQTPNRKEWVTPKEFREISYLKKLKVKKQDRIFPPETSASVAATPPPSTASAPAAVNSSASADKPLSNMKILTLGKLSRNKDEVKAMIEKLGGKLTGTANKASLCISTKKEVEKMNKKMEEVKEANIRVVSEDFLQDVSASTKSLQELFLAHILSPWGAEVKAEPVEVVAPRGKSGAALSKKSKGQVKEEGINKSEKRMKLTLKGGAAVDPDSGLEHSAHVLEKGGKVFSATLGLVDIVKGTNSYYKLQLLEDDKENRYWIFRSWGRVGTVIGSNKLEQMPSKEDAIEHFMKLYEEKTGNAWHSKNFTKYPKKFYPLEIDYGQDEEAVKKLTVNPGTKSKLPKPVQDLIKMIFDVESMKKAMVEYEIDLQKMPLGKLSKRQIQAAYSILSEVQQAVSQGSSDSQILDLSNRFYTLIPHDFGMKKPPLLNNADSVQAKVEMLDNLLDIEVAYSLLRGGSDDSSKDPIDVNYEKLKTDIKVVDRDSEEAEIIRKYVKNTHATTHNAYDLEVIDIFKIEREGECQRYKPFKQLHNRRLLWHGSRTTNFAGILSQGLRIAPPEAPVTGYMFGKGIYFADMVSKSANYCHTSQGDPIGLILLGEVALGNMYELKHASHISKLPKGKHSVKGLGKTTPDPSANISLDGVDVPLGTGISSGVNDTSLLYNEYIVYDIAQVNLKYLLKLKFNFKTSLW

The binders below were run against full-length PARP1 tagged on the N-terminus with APEX2 (expressed in U2OS cells) (human) (UniProt P09874) (assay: proximity labelling; APEX2-PARP1 in SILAC-labelled U2OS cells; 500 uM biotin phenol 2 h, 1 mM H2O2 2 min, against no H2O2; nuclear extract, NeutrAvidin pull-down, LC-MS/MS; FDR < 1%).

Binder	binding
DIS3 (protein, UniProt Q9Y2L1 1-958) MLKSKTFLKKTRAGGVMKIVREHYLRDDIGCGAPGCAACGGAHEGPALEPQPQDPASSVCPQPHYLLPDTNVLLHQIDVLEDPAIRNVIVLQTVLQEVRNRSAPVYKRIRDVTNNQEKHFYTFTNEHHRETYVEQEQGENANDRNDRAIRVAAKWYNEHLKKMSADNQLQVIFITNDRRNKEKAIEEGIPAFTCEEYVKSLTANPELIDRLACLSEEGNEIESGKIIFSEHLPLSKLQQGIKSGTYLQGTFRASRENYLEATVWIHGDNEENKEIILQGLKHLNRAVHEDIVAVELLPKSQWVAPSSVVLHDEGQNEEDVEKEEETERMLKTAVSEKMLKPTGRVVGIIKRNWRPYCGMLSKSDIKESRRHLFTPADKRIPRIRIETRQASTLEGRRIIVAIDGWPRNSRYPNGHFVRNLGDVGEKETETEVLLLEHDVPHQPFSQAVLSFLPKMPWSITEKDMKNREDLRHLCICSVDPPGCTDIDDALHCRELENGNLEVGVHIADVSHFIRPGNALDQESARRGTTVYLCEKRIDMVPELLSSNLCSLKCDVDRLAFSCIWEMNHNAEILKTKFTKSVINSKASLTYAEAQLRIDSANMNDDITTSLRGLNKLAKILKKRRIEKGALTLSSPEVRFHMDSETHDPIDLQTKELRETNSMVEEFMLLANISVAKKIHEEFSEHALLRKHPAPPPSNYEILVKAARSRNLEIKTDTAKSLAESLDQAESPTFPYLNTLLRILATRCMMQAVYFCSGMDNDFHHYGLASPIYTHFTSPIRRYADVIVHRLLAVAIGADCTYPELTDKHKLADICKNLNFRHKMAQYAQRASVAFHTQLFFKSKGIVSEEAYILFVRKNAIVVLIPKYGLEGTVFFEEKDKPNPQLIYDDEIPSLKIEDTVFHVFDKVKVKIMLDSSNLQHQKIRMSLVEPQIPGISIPTDTSNMDLNGPKKKKMKLGK	binds
AQR (protein, UniProt O60306 1-1485) MAAPAQPKKIVAPTVSQINAEFVTQLACKYWAPHIKKKSPFDIKVIEDIYEKEIVKSRFAIRKIMLLEFSQYLENYLWMNYSPEVSSKAYLMSICCMVNEKFRENVPAWEIFKKKPDHFPFFFKHILKAALAETDGEFSLHEQTVLLLFLDHCFNSLEVDLIRSQVQQLISLPMWMGLQLARLELELKKTPKLRKFWNLIKKNDEKMDPEAREQAYQERRFLSQLIQKFISVLKSVPLSEPVTMDKVHYCERFIELMIDLEALLPTRRWFNTILDDSHLLVHCYLSNLVRREEDGHLFSQLLDMLKFYTGFEINDQTGNALTENEMTTIHYDRITSLQRAAFAHFPELYDFALSNVAEVDTRESLVKFFGPLSSNTLHQVASYLCLLPTLPKNEDTTFDKEFLLELLVSRHERRISQIQQLNQMPLYPTEKIIWDENIVPTEYYSGEGCLALPKLNLQFLTLHDYLLRNFNLFRLESTYEIRQDIEDSVSRMKPWQSEYGGVVFGGWARMAQPIVAFTVVEVAKPNIGENWPTRVRADVTINLNVRDHIKDEWEGLRKHDVCFLITVRPTKPYGTKFDRRRPFIEQVGLVYVRGCEIQGMLDDKGRVIEDGPEPRPNLRGESRTFRVFLDPNQYQQDMTNTIQNGAEDVYETFNIIMRRKPKENNFKAVLETIRNLMNTDCVVPDWLHDIILGYGDPSSAHYSKMPNQIATLDFNDTFLSIEHLKASFPGHNVKVTVEDPALQIPPFRITFPVRSGKGKKRKDADVEDEDTEEAKTLIVEPHVIPNRGPYPYNQPKRNTIQFTHTQIEAIRAGMQPGLTMVVGPPGTGKTDVAVQIISNIYHNFPEQRTLIVTHSNQALNQLFEKIMALDIDERHLLRLGHGEEELETEKDFSRYGRVNYVLARRIELLEEVKRLQKSLGVPGDASYTCETAGYFFLYQVMSRWEEYISKVKNKGSTLPDVTEVSTFFPFHEYFANAPQPIFKGRSYEEDMEIAEGCFRHIKKIFTQLEEFRASELLRSGLDRSKYLLVKEAKIIAMTCTHAALKRHDLVKLGFKYDNILMEEAAQILEIETFIPLLLQNPQDGFSRLKRWIMIGDHHQLPPVIKNMAFQKYSNMEQSLFTRFVRVGVPTVDLDAQGRARASLCNLYNWRYKNLGNLPHVQLLPEFSTANAGLLYDFQLINVEDFQGVGESEPNPYFYQNLGEAEYVVALFMYMCLLGYPADKISILTTYNGQKHLIRDIINRRCGNNPLIGRPNKVTTVDRFQGQQNDYILLSLVRTRAVGHLRDVRRLVVAMSRARLGLYIFARVSLFQNCFELTPAFSQLTARPLHLHIIPTEPFPTTRKNGERPSHEVQIIKNMPQMANFVYNMYMHLIQTTHHYHQTLLQLPPAMVEEGEEVQNQETELETEEEAMTVQADIIPSPTDTSCRQETPAFQTDTTPSETGATSTPEAIPALSETTPTVVGAVSAPAEANTPQDATSAPEETK	binds
KIF22 (protein, UniProt Q14807 1-665) MAAGGSTQQRRREMAAASAAAISGAGRCRLSKIGATRRPPPARVRVAVRLRPFVDGTAGASDPPCVRGMDSCSLEIANWRNHQETLKYQFDAFYGERSTQQDIYAGSVQPILRHLLEGQNASVLAYGPTGAGKTHTMLGSPEQPGVIPRALMDLLQLTREEGAEGRPWALSVTMSYLEIYQEKVLDLLDPASGDLVIREDCRGNILIPGLSQKPISSFADFERHFLPASRNRTVGATRLNQRSSRSHAVLLVKVDQRERLAPFRQREGKLYLIDLAGSEDNRRTGNKGLRLKESGAINTSLFVLGKVVDALNQGLPRVPYRDSKLTRLLQDSLGGSAHSILIANIAPERRFYLDTVSALNFAARSKEVINRPFTNESLQPHALGPVKLSQKELLGPPEAKRARGPEEEEIGSPEPMAAPASASQKLSPLQKLSSMDPAMLERLLSLDRLLASQGSQGAPLLSTPKRERMVLMKTVEEKDLEIERLKTKQKELEAKMLAQKAEEKENHCPTMLRPLSHRTVTGAKPLKKAVVMPLQLIQEQAASPNAEIHILKNKGRKRKLESLDALEPEEKAEDCWELQISPELLAHGRQKILDLLNEGSARDLRSLQRIGPKKAQLIVGWRELHGPFSQVEDLERVEGITGKQMESFLKANILGLAAGQRCGAS	binds
KIF2C (protein, UniProt Q99661 1-725) MAMDSSLQARLFPGLAIKIQRSNGLIHSANVRTVNLEKSCVSVEWAEGGATKGKEIDFDDVAAINPELLQLLPLHPKDNLPLQENVTIQKQKRRSVNSKIPAPKESLRSRSTRMSTVSELRITAQENDMEVELPAAANSRKQFSVPPAPTRPSCPAVAEIPLRMVSEEMEEQVHSIRGSSSANPVNSVRRKSCLVKEVEKMKNKREEKKAQNSEMRMKRAQEYDSSFPNWEFARMIKEFRATLECHPLTMTDPIEEHRICVCVRKRPLNKQELAKKEIDVISIPSKCLLLVHEPKLKVDLTKYLENQAFCFDFAFDETASNEVVYRFTARPLVQTIFEGGKATCFAYGQTGSGKTHTMGGDLSGKAQNASKGIYAMASRDVFLLKNQPCYRKLGLEVYVTFFEIYNGKLFDLLNKKAKLRVLEDGKQQVQVVGLQEHLVNSADDVIKMIDMGSACRTSGQTFANSNSSRSHACFQIILRAKGRMHGKFSLVDLAGNERGADTSSADRQTRMEGAEINKSLLALKECIRALGQNKAHTPFRESKLTQVLRDSFIGENSRTCMIATISPGISSCEYTLNTLRYADRVKELSPHSGPSGEQLIQMETEEMEACSNGALIPGNLSKEEEELSSQMSSFNEAMTQIRELEEKAMEELKEIIQQGPDWLELSEMTEQPDYDLETFVNKAESALAQQAKHFSALRDVIKALRLAMQLEEQASRQISSKKRPQ	binds

The remaining lines, values ahead:

binding	Binder
binds	KIF23 (protein, UniProt Q02241 1-960) MKSARAKTPRKPTVKKGSQTNLKDPVGVYCRVRPLGFPDQECCIEVINNTTVQLHTPEGYRLNRNGDYKETQYSFKQVFGTHTTQKELFDVVANPLVNDLIHGKNGLLFTYGVTGSGKTHTMTGSPGEGGLLPRCLDMIFNSIGSFQAKRYVFKSNDRNSMDIQCEVDALLERQKREAMPNPKTSSSKRQVDPEFADMITVQEFCKAEEVDEDSVYGVFVSYIEIYNNYIYDLLEEVPFDPIKPKPPQSKLLREDKNHNMYVAGCTEVEVKSTEEAFEVFWRGQKKRRIANTHLNRESSRSHSVFNIKLVQAPLDADGDNVLQEKEQITISQLSLVDLAGSERTNRTRAEGNRLREAGNINQSLMTLRTCMDVLRENQMYGTNKMVPYRDSKLTHLFKNYFDGEGKVRMIVCVNPKAEDYEENLQVMRFAEVTQEVEVARPVDKAICGLTPGRRYRNQPRGPVGNEPLVTDVVLQSFPPLPSCEILDINDEQTLPRLIEALEKRHNLRQMMIDEFNKQSNAFKALLQEFDNAVLSKENHMQGKLNEKEKMISGQKLEIERLEKKNKTLEYKIEILEKTTTIYEEDKRNLQQELETQNQKLQRQFSDKRRLEARLQGMVTETTMKWEKECERRVAAKQLEMQNKLWVKDEKLKQLKAIVTEPKTEKPERPSRERDREKVTQRSVSPSPVPLSSNYIAQISNGQQLMSQPQLHRRSNSCSSISVASCISEWEQKIPTYNTPLKVTSIARRRQQEPGQSKTCIVSDRRRGMYWTEGREVVPTFRNEIEIEEDHCGRLLFQPDQNAPPIRLRHRRSRSAGDRWVDHKPASNMQTETVMQPHVPHAITVSVANEKALAKCEKYMLTHQELASDGEIETKLIKGDIYKTRGGGQSVQFTDIETLKQESPNGSRKRRSSTVAPAQPDGAESEWTDVETRCSVAVEMRAGSQLGPGYQHHAQPKRKKP
binds	THRAP3 (protein, UniProt Q9Y2W1 1-955) MSKTNKSKSGSRSSRSRSASRSRSRSFSKSRSRSRSLSRSRKRRLSSRSRSRSYSPAHNRERNHPRVYQNRDFRGHNRGYRRPYYFRGRNRGFYPWGQYNRGGYGNYRSNWQNYRQAYSPRRGRSRSRSPKRRSPSPRSRSHSRNSDKSSSDRSRRSSSSRSSSNHSRVESSKRKSAKEKKSSSKDSRPSQAAGDNQGDEAKEQTFSGGTSQDTKASESSKPWPDATYGTGSASRASAVSELSPRERSPALKSPLQSVVVRRRSPRPSPVPKPSPPLSSTSQMGSTLPSGAGYQSGTHQGQFDHGSGSLSPSKKSPVGKSPPSTGSTYGSSQKEESAASGGAAYTKRYLEEQKTENGKDKEQKQTNTDKEKIKEKGSFSDTGLGDGKMKSDSFAPKTDSEKPFRGSQSPKRYKLRDDFEKKMADFHKEEMDDQDKDKAKGRKESEFDDEPKFMSKVIGANKNQEEEKSGKWEGLVYAPPGKEKQRKTEELEEESFPERSKKEDRGKRSEGGHRGFVPEKNFRVTAYKAVQEKSSSPPPRKTSESRDKLGAKGDFPTGKSSFSITREAQVNVRMDSFDEDLARPSGLLAQERKLCRDLVHSNKKEQEFRSIFQHIQSAQSQRSPSELFAQHIVTIVHHVKEHHFGSSGMTLHERFTKYLKRGTEQEAAKNKKSPEIHRRIDISPSTFRKHGLAHDEMKSPREPGYKAEGKYKDDPVDLRLDIERRKKHKERDLKRGKSRESVDSRDSSHSRERSAEKTEKTHKGSKKQKKHRRARDRSRSSSSSSQSSHSYKAEEYTEETEEREESTTGFDKSRLGTKDFVGPSERGGGRARGTFQFRARGRGWGRGNYSGNNNNNSNNDFQKRNREEEWDPEYTPKSKKYYLHDDREGEGSDKWVSRGRGRGAFPRGRGRFMFRKSSTSPKWAHDKFSGEEGEIEDDESGTENREEKDNIQPTTE
